Measured values taken from US7129072.
No constants are given. Whether binding was seen depends on the method and setting. Some binding calls cover weakened binding; strength is not graded here.

By UniProt entry, the sequences of proteins in these tests, tags left out. Where a name states a change or a piece, a line headed by the entry shows the natural chain unless it says otherwise. Residues count along the entry.
UniProt P11362: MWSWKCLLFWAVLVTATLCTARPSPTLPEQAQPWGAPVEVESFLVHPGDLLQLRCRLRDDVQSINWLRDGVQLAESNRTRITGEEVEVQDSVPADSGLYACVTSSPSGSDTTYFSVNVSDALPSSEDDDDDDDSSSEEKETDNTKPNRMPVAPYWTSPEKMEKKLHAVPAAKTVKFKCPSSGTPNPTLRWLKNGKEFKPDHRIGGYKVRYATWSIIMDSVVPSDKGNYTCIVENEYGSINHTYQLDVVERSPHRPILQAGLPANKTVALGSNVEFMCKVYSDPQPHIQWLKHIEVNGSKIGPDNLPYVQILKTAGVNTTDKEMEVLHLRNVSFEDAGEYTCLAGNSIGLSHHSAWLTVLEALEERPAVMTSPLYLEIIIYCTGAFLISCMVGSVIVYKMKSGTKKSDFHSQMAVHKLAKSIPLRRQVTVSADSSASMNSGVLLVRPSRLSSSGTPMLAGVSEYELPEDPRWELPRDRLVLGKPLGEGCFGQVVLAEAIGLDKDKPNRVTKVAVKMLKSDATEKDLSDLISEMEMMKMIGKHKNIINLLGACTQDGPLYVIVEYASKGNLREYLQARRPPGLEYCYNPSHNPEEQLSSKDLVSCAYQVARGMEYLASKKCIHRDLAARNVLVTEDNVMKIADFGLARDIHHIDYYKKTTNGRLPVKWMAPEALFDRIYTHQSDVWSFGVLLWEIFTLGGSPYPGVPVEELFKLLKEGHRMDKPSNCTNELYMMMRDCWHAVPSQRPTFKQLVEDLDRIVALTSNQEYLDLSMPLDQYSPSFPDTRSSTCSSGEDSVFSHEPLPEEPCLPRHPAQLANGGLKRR
UniProt P09038, residues 143-288: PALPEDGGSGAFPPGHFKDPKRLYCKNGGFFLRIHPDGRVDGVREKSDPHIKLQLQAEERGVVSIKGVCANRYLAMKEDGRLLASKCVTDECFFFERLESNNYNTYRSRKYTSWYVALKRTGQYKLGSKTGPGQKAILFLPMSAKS

Assays:
[1] = target: FGFR1 D2-D3 (residues 142-365 of human FGFR1) (human) (UniProt P11362); assay: X-ray crystal structure of the dimer of FGFR1 D2-D3/FGF2 complexes
[2] = target: FGFR1 D2-D3 (residues 142-365 of human FGFR1) (human) (UniProt P11362); assay: X-ray crystal structure, figure legend (FIG. 1)
[3] = target: FGFR1 D2-D3 (residues 142-365 of human FGFR1) (human) (UniProt P11362); assay: refolded D2-D3 captured on heparin sepharose with immobilised FGF2; complex then purified by size exclusion chromatography
[4] = target: FGFR1 D2-D3 (residues 142-365 of human FGFR1) (human) (UniProt P11362); assay: X-ray crystal structure, title of the coordinate table (Table 1)
[5] = target: FGFR1 D2-D3 (residues 142-365 of human FGFR1) (human) (UniProt P11362); assay: X-ray crystal structure of FGFR1 D2-D3/FGF2
[6] = target: FGFR1 D2-D3 (residues 142-365 of human FGFR1) (human) (UniProt P11362); assay: X-ray crystal structure, title of the coordinate table (Table 6)
[7] = target: FGFR1 D2-D3 (residues 142-365 of human FGFR1) (human) (UniProt P11362); assay: X-ray crystal structure at 3.0 Å of FGF2-FGFR1 crystals soaked with heparin decasaccharide

| binding [1] | binding [2] | binding [3] | binding [4] | binding [5] | binding [6] | binding [7] | Substance |
| --- | --- | --- | --- | --- | --- | --- | --- |
| binds | – | – | – | – | – | – | FGFR1 D2-D3 (residues 142-365 of human FGFR1) (from UniProt P11362 149-359) (receptor) |
| – | binds | binds | binds | binds | binds | binds | FGF2 (basic FGF) (from UniProt P09038 143-288) (ligand) |
